# According to PubChem BioAssay AID602313 (National Center for Advancing Translational Sciences (NCATS), 2012):
# Screen size: about 390,000 compounds; about 760 (0.19%) were called active. This list was built around the results that the source calls inconclusive (neither active nor inactive); the mix of calls is not that of the screen. The call rests on the fitted dose curve; in most records, active means well fitted inhibition curve with a large enough effect; inconclusive means small, poorly fitted or top-dose-only effect; inactive means flat fitted curve, though single readings scatter. Where the call is inconclusive, the potency comes from a doubtful curve fit.
# Test: qHTS for Inhibitors of Vif-A3F Interactions: qHTS; further: nearly all actives have a fitted effect of over 65% in size; on activity, negative = active: % of control where 0% means no effect
# Conditions: HeLa A3F-eYFP + Vif (tagged APOBEC3F with the HIV-1 protein that degrades it), YFP fluorescence increase; series mostly up to 46.1 µM; activity, negative = active: at the top concentration
# Method in brief: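 HeLa cells stably expressing A3F-eYFP plus Vif, plated and incubated overnight at 37 deg C, then exposed to compounds overnight at 37 deg C. Blocked degradation read as raised yellow fluorescence (Ex 488/Em 500-530).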
# Potency means the concentration at half of the fitted maximal effect.
Compound,Potency,"activity, negative = active"
CCCC(O)(c1ccccc1)C(CN1CCOCC1)c1ccccc1 (configuration not stated),"inconclusive: 35.5 µM [inhibitor, single point]",–
COc1ccc(C(=O)c2sc3nc(C)cc(-c4cccs4)c3c2N)cc1,active: 22.4 µM,–
CCOC(=O)C1=C(Cc2ccc(Cl)cc2)C(=O)c2ccccc2C1=O,active: 28.2 µM,–
O=C(Nc1ccc(-c2nc3ncccc3o2)cc1)c1ccc([N+](=O)[O-])o1,"inconclusive: 3.55 µM [inhibitor, partial curve, poor fit]",–
COc1ccc(-c2cnnc(N/N=C/c3c(C)nn(-c4ccccc4)c3Cl)n2)cc1,"inconclusive: 2.24 µM [inhibitor, full curve, poor fit]",–
C1CC(CN2CCOCC2)CN(c2nc3nonc3nc2N2CCSCC2)C1 (configuration not stated),"inconclusive: 35.5 µM [inhibitor, single point]",–
Cc1ccccc1C(=O)Nc1nnc(-c2ccco2)o1,"inconclusive: 35.5 µM [inhibitor, single point]",–
CSc1ccc(Cl)c(C(=O)Nc2cc(S(=O)(=O)N3CCOCC3)ccc2N2CCOCC2)c1,"inconclusive: 6.31 µM [inhibitor, single point]",–
O=C(NNc1ccccc1[N+](=O)[O-])Nc1ccc(Cl)c(Cl)c1,"inconclusive: 14.1 µM [inhibitor, partial curve, poor fit]",–
CCOC(=O)C1(CC2CCCCO2)CCN(Cc2nccn2-c2cccc(C)c2)CC1 (configuration not stated),"inconclusive: 35.5 µM [inhibitor, single point]",–
CC(C)C(C(=O)Nc1nccs1)N1C(=O)c2ccccc2C1=O (configuration not stated),"inconclusive: 25.1 µM [inhibitor, single point]",–
CSc1nnc(C)c(/C=C/Nc2ccc(Cl)cc2)n1,"inconclusive: 25.1 µM [inhibitor, partial curve, poor fit]",–
c1cnc2nc(CSc3ncn[nH]3)cn2c1,"inconclusive: 12.6 µM [inhibitor, partial curve, poor fit]",–
Cc1ccc(OCCCC(=O)Nc2ccc(S(N)(=O)=O)cc2)cc1,"inconclusive: 15.8 µM [inhibitor, single point]",–
C[C@H](O)[C@@H]1C(=O)N2CCc3c([nH]c4ccccc34)[C@@H]2C[C@@H]1N(C)C(=O)Nc1cc(Cl)cc(Cl)c1,"inconclusive: 35.5 µM [inhibitor, single point]",–
CN1C(=O)CSc2ccc(NC(=O)Nc3ccccn3)cc21,"inconclusive: 35.5 µM [inhibitor, single point]",–
Cc1ccc(-n2ncc3c(NCCc4ccccc4)ncnc32)cc1,–,inactive: 4.09%

# Sorted by length of the SMILES (largest number first): part of the list above
Compound,Potency,"activity, negative = active"
CCOC(=O)C1=C(Cc2ccc(Cl)cc2)C(=O)c2ccccc2C1=O,active: 28.2 µM,–
Cc1ccc(OCCCC(=O)Nc2ccc(S(N)(=O)=O)cc2)cc1,"inconclusive: 15.8 µM [inhibitor, single point]",–
CC(C)C(C(=O)Nc1nccs1)N1C(=O)c2ccccc2C1=O (configuration not stated),"inconclusive: 25.1 µM [inhibitor, single point]",–
